Assay results reported in article PMC6233515.
These are yes or no findings as the source states them, for the method shown. In cells and extracts the contact can be indirect. Some results given as binding are weak or reduced against the parent protein; the word gives no strength. Where a sequence is shown, tags or fusion partners need not be part of it.

Amino acid sequences for entries named in this document (tags omitted). A change or cut given only in a name is not applied to a line headed by its entry. Chains listed by the source or under a name are the forms on record and can include a tag or linker. Residues count along the entry.
Axl receptor tyrosine kinase, wild type (P30530, residues 26-894): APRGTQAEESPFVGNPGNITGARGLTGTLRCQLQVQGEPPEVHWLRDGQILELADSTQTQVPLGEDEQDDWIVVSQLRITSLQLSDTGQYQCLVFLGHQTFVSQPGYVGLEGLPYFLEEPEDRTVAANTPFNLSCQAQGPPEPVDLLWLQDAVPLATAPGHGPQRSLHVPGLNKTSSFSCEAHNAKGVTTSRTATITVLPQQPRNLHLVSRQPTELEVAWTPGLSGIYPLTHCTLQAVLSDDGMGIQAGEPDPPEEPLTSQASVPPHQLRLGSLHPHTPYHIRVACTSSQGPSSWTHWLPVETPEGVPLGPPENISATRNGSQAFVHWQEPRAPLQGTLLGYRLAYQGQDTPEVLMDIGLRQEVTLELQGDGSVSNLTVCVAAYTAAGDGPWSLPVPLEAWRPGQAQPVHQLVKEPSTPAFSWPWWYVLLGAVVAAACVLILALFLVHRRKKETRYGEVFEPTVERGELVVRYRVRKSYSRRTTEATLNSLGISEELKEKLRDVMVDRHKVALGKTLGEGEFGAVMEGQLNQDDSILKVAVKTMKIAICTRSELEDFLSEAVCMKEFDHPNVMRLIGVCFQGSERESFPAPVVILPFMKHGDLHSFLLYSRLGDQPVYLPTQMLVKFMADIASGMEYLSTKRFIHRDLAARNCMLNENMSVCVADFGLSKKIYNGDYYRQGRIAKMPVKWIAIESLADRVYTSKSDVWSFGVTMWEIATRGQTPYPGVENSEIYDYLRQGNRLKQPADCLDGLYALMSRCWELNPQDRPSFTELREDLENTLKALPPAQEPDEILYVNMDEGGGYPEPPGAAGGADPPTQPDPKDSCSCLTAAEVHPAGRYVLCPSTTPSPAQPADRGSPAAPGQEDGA
Axl kinase-death (KD) mutant K567R (P30530, form named): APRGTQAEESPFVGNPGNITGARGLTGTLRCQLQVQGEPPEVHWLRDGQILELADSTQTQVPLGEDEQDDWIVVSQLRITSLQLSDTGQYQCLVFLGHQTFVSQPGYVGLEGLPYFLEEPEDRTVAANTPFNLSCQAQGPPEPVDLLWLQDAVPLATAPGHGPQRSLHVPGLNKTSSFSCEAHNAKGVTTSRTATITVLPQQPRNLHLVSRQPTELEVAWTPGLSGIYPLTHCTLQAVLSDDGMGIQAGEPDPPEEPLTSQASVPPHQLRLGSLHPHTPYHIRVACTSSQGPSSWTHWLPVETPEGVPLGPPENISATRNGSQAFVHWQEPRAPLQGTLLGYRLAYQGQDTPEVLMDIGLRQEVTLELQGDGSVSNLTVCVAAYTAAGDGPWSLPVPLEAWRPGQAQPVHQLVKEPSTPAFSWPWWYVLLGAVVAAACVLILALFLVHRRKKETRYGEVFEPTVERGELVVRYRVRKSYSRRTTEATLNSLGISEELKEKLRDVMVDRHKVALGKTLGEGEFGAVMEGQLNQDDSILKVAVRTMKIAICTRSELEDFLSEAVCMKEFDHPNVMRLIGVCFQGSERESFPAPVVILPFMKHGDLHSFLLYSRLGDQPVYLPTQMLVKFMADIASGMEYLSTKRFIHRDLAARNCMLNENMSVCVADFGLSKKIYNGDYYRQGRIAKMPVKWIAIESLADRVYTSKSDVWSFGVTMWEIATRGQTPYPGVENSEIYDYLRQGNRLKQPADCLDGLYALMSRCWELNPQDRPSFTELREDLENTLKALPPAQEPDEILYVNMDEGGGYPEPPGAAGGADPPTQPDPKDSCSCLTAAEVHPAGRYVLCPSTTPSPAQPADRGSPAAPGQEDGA

Biological target: T1, Myc-tagged wild-type human Tensin2 (human) (UniProt Q63HR2)
T1 sequence: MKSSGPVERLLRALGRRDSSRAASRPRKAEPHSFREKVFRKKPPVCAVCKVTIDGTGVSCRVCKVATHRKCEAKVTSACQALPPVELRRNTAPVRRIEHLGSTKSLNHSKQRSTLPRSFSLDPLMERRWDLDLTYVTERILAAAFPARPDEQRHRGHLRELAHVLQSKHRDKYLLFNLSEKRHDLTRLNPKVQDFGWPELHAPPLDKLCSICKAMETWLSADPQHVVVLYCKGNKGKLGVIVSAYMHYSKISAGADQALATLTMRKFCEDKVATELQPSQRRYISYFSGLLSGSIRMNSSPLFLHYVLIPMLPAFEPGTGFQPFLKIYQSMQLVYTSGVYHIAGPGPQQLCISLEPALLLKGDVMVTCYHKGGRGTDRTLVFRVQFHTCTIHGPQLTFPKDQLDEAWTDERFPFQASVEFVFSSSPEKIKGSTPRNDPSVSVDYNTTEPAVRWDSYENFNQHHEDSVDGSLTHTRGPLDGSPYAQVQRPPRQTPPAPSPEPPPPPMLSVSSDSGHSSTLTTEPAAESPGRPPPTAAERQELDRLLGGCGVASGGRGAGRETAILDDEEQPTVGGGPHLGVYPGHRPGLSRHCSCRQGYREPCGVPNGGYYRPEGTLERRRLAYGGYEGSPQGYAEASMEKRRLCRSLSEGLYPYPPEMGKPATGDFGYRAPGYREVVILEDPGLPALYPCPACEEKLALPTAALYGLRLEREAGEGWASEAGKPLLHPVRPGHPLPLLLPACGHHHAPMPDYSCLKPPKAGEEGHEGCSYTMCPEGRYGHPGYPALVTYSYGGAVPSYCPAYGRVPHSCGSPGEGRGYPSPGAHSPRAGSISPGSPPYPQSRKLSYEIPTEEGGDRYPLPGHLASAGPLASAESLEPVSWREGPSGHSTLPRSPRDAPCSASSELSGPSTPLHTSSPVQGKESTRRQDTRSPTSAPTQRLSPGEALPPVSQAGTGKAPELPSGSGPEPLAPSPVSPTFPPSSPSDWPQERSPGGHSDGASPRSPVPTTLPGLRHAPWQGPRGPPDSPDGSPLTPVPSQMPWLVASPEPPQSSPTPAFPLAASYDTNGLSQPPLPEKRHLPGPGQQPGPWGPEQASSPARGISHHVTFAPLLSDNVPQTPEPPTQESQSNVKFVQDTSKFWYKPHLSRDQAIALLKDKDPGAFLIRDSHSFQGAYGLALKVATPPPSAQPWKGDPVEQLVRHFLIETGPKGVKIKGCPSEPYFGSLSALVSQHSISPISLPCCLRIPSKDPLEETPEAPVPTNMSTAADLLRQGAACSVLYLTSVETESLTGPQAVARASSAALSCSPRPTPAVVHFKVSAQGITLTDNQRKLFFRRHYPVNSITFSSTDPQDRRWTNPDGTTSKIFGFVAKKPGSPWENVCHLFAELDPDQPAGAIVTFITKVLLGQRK
Experiment: co-IP; HEK293T cells transfected with Axl (wild type or mutants) and Myc-TNS2; NETN lysis buffer (150 mM NaCl, 1 mM EDTA, 20 mM Tris-Cl pH 8.0, 0.5% NP-40); reciprocal IP with anti-Myc (9E10) or anti-Axl (C-20) at 4 °C overnight, protein A/G-agarose; Western blot

Row | Substance | binding
1 | Axl kinase-death (KD) mutant K567R (from UniProt P30530 26-894) (receptor) | no binding
2 | Axl receptor tyrosine kinase, wild type (from UniProt P30530 26-894) | binds
